The target in the test is human CD137 extracellular domain (Peprotech, cat. 310-15-1MG) (human) (UniProt Q07011). Description: flow cytometry; binder captured on protein G beads, R-PE labelled CD137 ECD. Background: In flow cytometry, cells or beads pass a laser one at a time.

The chains behind the UniProt entries cited, without tags or fusion partners. Where a name states a change or a piece, a line headed by the entry shows the natural chain unless it says otherwise. Residues count along the entry.
UniProt Q07011: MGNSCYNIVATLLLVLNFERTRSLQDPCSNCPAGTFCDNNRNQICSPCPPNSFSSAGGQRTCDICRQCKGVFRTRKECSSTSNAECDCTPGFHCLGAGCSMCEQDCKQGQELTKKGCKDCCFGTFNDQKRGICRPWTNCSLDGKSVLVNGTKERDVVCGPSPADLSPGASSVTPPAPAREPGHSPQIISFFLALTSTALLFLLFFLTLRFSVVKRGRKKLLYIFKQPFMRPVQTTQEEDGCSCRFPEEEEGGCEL
UniProt P41273, residues 50-254: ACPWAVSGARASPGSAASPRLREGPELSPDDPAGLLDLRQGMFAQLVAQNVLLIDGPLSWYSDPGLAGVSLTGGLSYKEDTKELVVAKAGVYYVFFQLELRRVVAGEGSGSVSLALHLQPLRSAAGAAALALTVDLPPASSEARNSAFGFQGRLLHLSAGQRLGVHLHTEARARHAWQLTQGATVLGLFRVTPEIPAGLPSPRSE

Results are given in words; binding and its absence hold for the method and conditions named. Some entries that bind do so weakly or less than the wild type.

Regarding “CD137L ECD fused to the Fc part of a human IgG1 (from UniProt P41273 50-254) (Fc fusion)”, the binding result is given as “binds”.

For the origin of these results see patent US20210395379A1.
